# Assay results reported in the supplement of paper PMC10849652.
# Amino acid sequences for entries named in this document (tags omitted). A change or cut given only in a name is not applied to a line headed by its entry.
# UniProt Q8WWW0: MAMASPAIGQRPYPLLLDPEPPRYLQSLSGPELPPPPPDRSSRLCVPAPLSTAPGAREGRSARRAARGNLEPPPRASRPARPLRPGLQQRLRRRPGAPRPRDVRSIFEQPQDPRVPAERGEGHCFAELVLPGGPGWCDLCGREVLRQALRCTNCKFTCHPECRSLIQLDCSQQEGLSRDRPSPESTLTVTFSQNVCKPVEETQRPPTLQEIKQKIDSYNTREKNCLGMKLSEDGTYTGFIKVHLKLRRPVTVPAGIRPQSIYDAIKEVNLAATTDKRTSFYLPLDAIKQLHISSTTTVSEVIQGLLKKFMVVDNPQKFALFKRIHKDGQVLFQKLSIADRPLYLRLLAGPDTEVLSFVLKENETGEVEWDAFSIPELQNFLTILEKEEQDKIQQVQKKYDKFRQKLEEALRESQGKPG
# UniProt P54136: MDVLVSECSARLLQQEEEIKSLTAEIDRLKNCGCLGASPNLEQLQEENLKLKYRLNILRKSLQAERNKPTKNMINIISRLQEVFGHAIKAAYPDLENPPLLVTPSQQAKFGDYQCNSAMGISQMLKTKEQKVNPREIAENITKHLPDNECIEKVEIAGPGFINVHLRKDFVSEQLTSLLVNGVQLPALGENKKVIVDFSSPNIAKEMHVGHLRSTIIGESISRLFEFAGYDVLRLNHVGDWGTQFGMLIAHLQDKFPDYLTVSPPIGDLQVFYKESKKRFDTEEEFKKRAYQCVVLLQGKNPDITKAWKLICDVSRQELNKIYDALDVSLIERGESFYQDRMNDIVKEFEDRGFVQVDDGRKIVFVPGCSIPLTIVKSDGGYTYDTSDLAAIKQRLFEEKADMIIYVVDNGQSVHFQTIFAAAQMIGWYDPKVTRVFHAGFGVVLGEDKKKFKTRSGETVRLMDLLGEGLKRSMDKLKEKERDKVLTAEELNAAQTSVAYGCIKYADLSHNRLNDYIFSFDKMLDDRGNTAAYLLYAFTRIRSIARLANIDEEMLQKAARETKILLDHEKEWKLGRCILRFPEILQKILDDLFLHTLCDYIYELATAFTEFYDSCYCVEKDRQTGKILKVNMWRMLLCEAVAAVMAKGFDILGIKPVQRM
# UniProt Q00765: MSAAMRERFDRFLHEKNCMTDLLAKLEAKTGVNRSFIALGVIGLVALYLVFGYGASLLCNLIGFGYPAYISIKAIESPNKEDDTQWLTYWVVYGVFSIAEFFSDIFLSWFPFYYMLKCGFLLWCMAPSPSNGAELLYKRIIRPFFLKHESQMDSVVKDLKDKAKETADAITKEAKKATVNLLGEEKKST
# UniProt Q9BYM8: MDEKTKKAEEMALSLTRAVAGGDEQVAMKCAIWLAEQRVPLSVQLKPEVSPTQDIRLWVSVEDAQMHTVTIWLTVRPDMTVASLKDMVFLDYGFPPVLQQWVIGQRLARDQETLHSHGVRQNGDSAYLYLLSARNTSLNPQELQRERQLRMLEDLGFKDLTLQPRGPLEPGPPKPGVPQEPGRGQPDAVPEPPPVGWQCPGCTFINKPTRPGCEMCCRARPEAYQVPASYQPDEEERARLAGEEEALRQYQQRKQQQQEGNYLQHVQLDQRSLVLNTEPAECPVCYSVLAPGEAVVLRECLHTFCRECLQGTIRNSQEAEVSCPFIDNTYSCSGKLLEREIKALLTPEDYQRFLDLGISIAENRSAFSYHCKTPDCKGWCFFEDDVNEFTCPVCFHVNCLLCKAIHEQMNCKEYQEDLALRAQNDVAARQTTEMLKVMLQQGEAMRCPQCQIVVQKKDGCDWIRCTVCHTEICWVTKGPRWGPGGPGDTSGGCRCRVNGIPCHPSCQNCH
# UniProt P49756, whole entry, looked up: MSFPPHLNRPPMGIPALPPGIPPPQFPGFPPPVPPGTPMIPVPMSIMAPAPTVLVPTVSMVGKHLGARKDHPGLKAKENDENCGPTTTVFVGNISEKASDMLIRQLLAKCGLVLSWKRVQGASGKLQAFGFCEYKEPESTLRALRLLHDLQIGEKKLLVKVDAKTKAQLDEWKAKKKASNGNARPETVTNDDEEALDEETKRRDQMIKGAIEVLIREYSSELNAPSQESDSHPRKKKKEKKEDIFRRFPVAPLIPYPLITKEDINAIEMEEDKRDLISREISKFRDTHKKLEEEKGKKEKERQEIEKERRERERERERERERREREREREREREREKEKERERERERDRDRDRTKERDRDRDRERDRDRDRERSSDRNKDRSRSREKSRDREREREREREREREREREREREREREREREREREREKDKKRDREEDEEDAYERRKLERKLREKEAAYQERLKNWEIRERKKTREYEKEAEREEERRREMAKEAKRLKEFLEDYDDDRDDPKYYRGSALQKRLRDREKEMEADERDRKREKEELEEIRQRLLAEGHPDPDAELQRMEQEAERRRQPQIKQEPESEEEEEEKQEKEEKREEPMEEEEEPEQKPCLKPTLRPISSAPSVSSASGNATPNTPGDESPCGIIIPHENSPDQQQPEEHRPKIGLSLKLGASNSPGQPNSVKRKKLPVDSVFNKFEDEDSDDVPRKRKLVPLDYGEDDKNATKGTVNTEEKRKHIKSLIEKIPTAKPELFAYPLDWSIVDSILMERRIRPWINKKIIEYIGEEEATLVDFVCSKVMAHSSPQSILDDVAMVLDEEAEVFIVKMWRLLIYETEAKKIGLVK
# UniProt Q8IZV5: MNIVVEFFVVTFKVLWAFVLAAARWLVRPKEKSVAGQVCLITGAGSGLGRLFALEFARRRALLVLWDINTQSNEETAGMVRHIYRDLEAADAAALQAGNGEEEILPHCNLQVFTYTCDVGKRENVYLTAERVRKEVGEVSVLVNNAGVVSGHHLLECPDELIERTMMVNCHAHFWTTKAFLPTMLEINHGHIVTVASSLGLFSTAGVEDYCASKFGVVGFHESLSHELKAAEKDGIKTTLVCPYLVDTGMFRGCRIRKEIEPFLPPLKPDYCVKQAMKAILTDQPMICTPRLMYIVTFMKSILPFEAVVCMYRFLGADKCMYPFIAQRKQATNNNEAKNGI
# UniProt P35251: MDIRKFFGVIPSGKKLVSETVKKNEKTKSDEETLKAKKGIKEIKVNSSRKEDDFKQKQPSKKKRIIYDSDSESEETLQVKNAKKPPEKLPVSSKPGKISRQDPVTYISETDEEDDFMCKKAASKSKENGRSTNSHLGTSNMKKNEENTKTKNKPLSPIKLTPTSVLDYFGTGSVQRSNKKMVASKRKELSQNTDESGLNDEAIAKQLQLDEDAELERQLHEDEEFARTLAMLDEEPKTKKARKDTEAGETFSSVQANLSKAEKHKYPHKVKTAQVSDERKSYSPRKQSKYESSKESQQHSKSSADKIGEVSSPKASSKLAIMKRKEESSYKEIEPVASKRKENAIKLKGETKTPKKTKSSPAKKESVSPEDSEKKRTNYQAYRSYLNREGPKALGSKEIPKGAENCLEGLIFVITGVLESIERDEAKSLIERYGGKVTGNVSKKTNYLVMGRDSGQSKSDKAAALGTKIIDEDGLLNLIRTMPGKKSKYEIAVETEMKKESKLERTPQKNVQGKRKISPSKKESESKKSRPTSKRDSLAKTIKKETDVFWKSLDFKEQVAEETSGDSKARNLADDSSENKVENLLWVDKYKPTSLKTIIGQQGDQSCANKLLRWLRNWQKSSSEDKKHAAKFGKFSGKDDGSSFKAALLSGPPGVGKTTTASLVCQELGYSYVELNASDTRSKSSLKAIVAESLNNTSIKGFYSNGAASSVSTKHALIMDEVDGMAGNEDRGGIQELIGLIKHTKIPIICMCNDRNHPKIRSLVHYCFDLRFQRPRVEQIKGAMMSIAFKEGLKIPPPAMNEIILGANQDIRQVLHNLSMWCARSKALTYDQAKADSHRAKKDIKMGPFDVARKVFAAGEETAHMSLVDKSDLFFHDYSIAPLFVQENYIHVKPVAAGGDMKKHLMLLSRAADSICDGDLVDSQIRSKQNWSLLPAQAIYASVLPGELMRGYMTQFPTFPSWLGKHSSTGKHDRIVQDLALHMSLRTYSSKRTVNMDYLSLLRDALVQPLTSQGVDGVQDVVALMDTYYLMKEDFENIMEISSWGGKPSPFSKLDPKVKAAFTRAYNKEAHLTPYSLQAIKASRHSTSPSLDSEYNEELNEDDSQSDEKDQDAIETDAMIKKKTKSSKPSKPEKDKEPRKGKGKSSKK
# UniProt Q06330: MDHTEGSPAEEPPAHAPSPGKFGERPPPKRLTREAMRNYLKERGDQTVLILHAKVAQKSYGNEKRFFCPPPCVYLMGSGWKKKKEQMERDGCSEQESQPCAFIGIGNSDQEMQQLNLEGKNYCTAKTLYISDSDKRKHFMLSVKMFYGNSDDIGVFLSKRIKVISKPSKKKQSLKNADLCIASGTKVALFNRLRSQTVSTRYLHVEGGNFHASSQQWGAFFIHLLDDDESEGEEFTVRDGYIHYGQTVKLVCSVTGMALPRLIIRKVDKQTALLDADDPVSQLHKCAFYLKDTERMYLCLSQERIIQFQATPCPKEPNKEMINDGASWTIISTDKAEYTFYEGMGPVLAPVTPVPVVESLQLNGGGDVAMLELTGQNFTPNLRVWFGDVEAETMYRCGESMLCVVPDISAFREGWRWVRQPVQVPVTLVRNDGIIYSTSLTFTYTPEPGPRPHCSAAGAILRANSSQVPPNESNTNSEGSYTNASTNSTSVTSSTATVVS
# UniProt Q15291, whole entry, looked up: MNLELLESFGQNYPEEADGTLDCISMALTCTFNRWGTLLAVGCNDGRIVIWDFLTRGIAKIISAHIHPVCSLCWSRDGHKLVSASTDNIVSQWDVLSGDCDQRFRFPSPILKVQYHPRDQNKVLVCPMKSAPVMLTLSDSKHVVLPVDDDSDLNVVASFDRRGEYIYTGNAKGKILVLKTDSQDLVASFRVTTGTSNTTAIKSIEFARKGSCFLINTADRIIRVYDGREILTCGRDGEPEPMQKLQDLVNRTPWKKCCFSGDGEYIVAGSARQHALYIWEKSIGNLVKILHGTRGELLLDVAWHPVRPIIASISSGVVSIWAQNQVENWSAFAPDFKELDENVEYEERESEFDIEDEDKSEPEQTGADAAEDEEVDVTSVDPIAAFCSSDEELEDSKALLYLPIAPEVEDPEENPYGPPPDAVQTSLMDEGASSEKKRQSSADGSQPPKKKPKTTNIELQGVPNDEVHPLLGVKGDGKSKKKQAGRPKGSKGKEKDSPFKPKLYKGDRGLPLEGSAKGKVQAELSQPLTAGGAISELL
# UniProt A6NED2: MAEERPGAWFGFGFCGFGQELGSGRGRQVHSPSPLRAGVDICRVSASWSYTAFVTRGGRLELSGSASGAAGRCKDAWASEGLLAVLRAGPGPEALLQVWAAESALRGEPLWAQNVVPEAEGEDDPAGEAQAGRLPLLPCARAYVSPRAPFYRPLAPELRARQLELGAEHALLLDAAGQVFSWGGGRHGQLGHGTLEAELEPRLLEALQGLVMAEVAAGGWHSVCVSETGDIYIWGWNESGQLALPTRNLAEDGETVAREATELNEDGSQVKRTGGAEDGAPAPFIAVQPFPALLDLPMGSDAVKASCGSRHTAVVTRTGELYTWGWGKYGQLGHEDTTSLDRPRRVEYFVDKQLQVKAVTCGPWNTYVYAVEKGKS
# UniProt Q16576, whole entry, looked up: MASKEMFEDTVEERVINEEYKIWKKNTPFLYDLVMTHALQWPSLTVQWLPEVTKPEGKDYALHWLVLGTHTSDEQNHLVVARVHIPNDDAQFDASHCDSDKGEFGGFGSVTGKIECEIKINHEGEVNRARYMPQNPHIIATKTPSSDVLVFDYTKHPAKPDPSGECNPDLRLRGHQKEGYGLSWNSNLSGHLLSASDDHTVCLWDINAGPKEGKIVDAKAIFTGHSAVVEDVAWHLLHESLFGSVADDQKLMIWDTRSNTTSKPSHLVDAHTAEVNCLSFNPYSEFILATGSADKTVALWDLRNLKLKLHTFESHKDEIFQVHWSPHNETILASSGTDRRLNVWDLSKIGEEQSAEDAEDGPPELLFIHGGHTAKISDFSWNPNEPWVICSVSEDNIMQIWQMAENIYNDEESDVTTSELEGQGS
# UniProt P35241, whole entry, looked up: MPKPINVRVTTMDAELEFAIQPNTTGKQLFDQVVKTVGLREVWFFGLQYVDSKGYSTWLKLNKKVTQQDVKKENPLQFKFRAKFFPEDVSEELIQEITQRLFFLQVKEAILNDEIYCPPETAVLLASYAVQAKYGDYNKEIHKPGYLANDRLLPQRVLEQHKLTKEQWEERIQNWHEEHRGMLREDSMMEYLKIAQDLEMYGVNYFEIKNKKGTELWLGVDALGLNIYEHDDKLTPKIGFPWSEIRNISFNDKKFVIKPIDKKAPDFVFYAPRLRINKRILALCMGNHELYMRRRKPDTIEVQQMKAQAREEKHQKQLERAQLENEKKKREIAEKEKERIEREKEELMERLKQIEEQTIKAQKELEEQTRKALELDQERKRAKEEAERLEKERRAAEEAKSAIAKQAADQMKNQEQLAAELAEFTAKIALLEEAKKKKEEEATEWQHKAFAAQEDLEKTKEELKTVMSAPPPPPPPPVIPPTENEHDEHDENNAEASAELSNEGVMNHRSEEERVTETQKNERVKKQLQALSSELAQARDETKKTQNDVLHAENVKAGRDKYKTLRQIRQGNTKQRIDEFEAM
# This is one part of the list.
# What was measured:
# Assay in all cases: log2 fold change, soluble protein after heating vs DMSO (PISA); higher = thermal stabilisation; K562 lysate, 10 uM; active = over 0.2 and 3.5 SD of the protein, either way, in both replicates (recomputed)
# [1] = compound: Cc1cn(-c2cc(NC(=O)c3ccc(C)c(Nc4nccc(-c5cccnc5)n4)c3)cc(C(F)(F)F)c2)cn1 [nilotinib]
# Outline: (§1)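 To prepare the extract, K562 pellets were dounce-homogenised in PBS pH 7.4 with 1 mM MgCl2, giving crude material at 1 mg/mL protein. This was treated with 10 μM compound for 30 min, then heated in aliquots for 3 min over 48°C-58°C before pooling and addition of NP-40 to 0.5% at 4°C. Centrifugation at 21,000xg for 90 min left soluble protein in the supernatant, which TMTpro 16plex LC-MS/MS quantified with equalised channel sums. Results are log-two fold changes in thermal stability compared with solvent controls, from duplicates.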
# [2] = compound: Cc1nc(Nc2n[nH]c3c2CN(C(=O)N[C@H](CN(C)C)c2ccccc2)C3(C)C)c2sccc2n1
# Outline: as §1
# [3] = compound: Cc1nc(Nc2ncc(C(=O)Nc3c(C)cccc3Cl)s2)cc(N2CCN(CCO)CC2)n1 [dasatinib]
# Outline: as §1
# [4] = compound: Cc1ncc(-c2ccnc(Nc3ccc(S(C)(=O)=O)cc3)n2)n1C(C)C
# Outline: as §1
# [5] = compound: Cn1cc(-c2ccc3c(c2)CCN3C(=O)Cc2cccc(C(F)(F)F)c2)c2c(N)ncnc21
# Outline: as §1
# [6] = compound: Cn1cc(CNCC2CCN(c3ncc(C(=O)NO)cn3)CC2)c2ccccc21 [quisinostat]
# Outline: as §1
# [7] = compound: Cn1cncc1[C@@](N)(c1ccc(Cl)cc1)c1ccc2c(c1)c(-c1cccc(Cl)c1)cc(=O)n2C [tipifarnib]
# Outline: as §1
# [8] = compound: NC(=O)Nc1cc(-c2cccc(F)c2)sc1C(=O)N[C@H]1CCCNC1
# Outline: as §1
# [9] = compound: NC(=O)c1cnc(N[C@@H]2CCCC[C@@H]2N)nc1Nc1cccc(-n2nccn2)c1
# Outline: as §1
# [10] = compound: NC1(c2ccc(-c3nc4ccn5c(=O)[nH]nc5c4cc3-c3ccccc3)cc2)CCC1
# Outline: as §1
# [11] = compound: NCC(=O)Nc1ccc(-n2nc(C(F)(F)F)cc2-c2ccc3c(ccc4ccccc43)c2)cc1
# Outline: as §1
# [12] = compound: O=C(CCCCCCC(=O)Nc1ccccc1)NO [vorinostat]
# Outline: as §1
# [13] = compound: O=C(O)c1ccc2c(c1)nc(Nc1cccc(Cl)c1)c1ccncc12 [silmitasertib]
# Outline: as §1
# [14] = compound: O=C1NC(=O)C(c2cnc3ccccn23)=C1c1cn2c3c(cc(F)cc13)CN(C(=O)N1CCCCC1)CC2
# Outline: as §1
# [15] = compound: c1cn2cc(-c3ccc4cn[nH]c4c3)nc(Nc3ccc(N4CCOCC4)cc3)c2n1 [entospletinib]
# Outline: as §1
Target,log2 fold change [1],log2 fold change [2],log2 fold change [3],log2 fold change [4],log2 fold change [5],log2 fold change [6],log2 fold change [7],log2 fold change [8],log2 fold change [9],log2 fold change [10],log2 fold change [11],log2 fold change [12],log2 fold change [13],log2 fold change [14],log2 fold change [15]
RB1CC1 (UniProt Q8TDY2),inactive: 0.027,inactive: 0.037,inactive: 0.004,inactive: 0.03,inactive: -0.008,inactive: -0.1,inactive: -0.014,inactive: 0.065,inactive: 0.003,inactive: -0.009,inactive: 0.032,inactive: -0.167,inactive: 0.016,inactive: 0.005,inactive: 0.009
RCOR3 isoform 3 (UniProt Q9P2K3),inactive: -0.016,inactive: -0.028,inactive: -0.052,inactive: 0.038,inactive: 0.01,inactive: 0.022,inactive: 0.011,inactive: 0.03,inactive: 0.029,inactive: 0.014,inactive: -0.044,inactive: -0.206,inactive: -0.002,inactive: -0.01,inactive: 0.034
RASSF5 (UniProt Q8WWW0),inactive: -0.097,inactive: 0.167,inactive: 0.087,inactive: 0.021,inactive: 0.1,inactive: -0.155,inactive: 0,inactive: 0.216,inactive: 0.065,inactive: 0.05,inactive: 0.005,inactive: -0.036,inactive: 0.072,inactive: -0.037,inactive: -0.012
RARS (UniProt P54136),inactive: 0.004,inactive: 0,inactive: -0.074,inactive: -0.017,inactive: 0.038,inactive: -0.017,inactive: 0.006,inactive: 0.049,inactive: 0.015,inactive: -0.023,inactive: -0.004,active: -0.309,inactive: 0.056,inactive: -0.009,inactive: 0.024
RASA1 (UniProt P20936),inactive: -0.011,inactive: 0.015,inactive: 0.01,inactive: 0.027,inactive: 0.034,inactive: -0.01,inactive: 0.03,inactive: 0.036,inactive: 0.007,inactive: -0.028,inactive: 0.014,inactive: -0.092,inactive: 0,inactive: 0.005,inactive: 0.011
REEP5 (UniProt Q00765),inactive: 0.107,inactive: -0.011,inactive: 0.056,inactive: 0.003,inactive: -0.012,inactive: 0.005,inactive: 0.026,inactive: -0.024,inactive: 0,inactive: -0.023,inactive: -0.034,inactive: 0.001,inactive: -0.025,inactive: 0.02,inactive: 0.015
RBCK1 (UniProt Q9BYM8),inactive: -0.043,inactive: -0.002,inactive: 0.024,inactive: -0.015,inactive: 0.055,inactive: -0.109,inactive: 0.038,inactive: 0.063,inactive: -0.012,inactive: 0.002,inactive: 0.006,inactive: -0.04,inactive: 0.048,inactive: -0.045,inactive: 0.02
RBM25 (UniProt P49756),inactive: -0.009,inactive: 0.019,inactive: -0.106,inactive: -0.054,inactive: -0.009,inactive: -0.076,inactive: -0.043,inactive: 0.03,inactive: 0.015,inactive: 0.09,inactive: 0.067,inactive: -0.041,inactive: 0.009,inactive: -0.018,inactive: -0.016
"RAPGEF5, A0A590UJR0",inactive: 0.289,inactive: 0.058,inactive: 0.002,inactive: -0.263,inactive: -0.024,inactive: -0.094,inactive: -0.433,inactive: -0.044,inactive: 0.134,inactive: -0.261,inactive: 0.106,inactive: 0.045,inactive: -0.035,inactive: 0.043,inactive: -0.067
RFK (UniProt Q969G6),inactive: -0.032,inactive: 0.062,inactive: 0.025,inactive: -0.094,inactive: -0.02,inactive: -0.043,inactive: -0.019,inactive: 0.091,inactive: 0.016,inactive: -0.052,inactive: 0.013,inactive: -0.062,inactive: -0.001,inactive: 0.002,inactive: 0.029
RDH10 (UniProt Q8IZV5),inactive: -0.004,inactive: 0.011,inactive: 0.132,inactive: 0.026,inactive: -0.022,inactive: 0.05,inactive: 0.042,inactive: -0.002,inactive: -0.084,inactive: 0.073,inactive: -0.038,inactive: -0.007,inactive: 0.006,inactive: -0.042,inactive: 0.162
RFC1 (UniProt P35251),inactive: -0.007,inactive: -0.017,inactive: -0.05,inactive: 0.014,inactive: -0.026,inactive: -0.048,inactive: -0.063,inactive: -0.006,inactive: 0.01,inactive: 0.054,inactive: -0.038,inactive: -0.174,inactive: 0.105,inactive: 0,inactive: -0.014
RFFL (UniProt Q8WZ73),inactive: 0.116,inactive: 0.143,inactive: 0.037,inactive: -0.063,inactive: 0.028,inactive: -0.069,inactive: 0.036,inactive: 0.022,inactive: -0.065,inactive: 0.004,inactive: 0.015,inactive: 0.103,inactive: -0.104,inactive: 0.005,inactive: 0.064
RBM5 (UniProt P52756),inactive: 0.146,inactive: -0.085,inactive: 0.073,inactive: 0.028,inactive: -0.003,inactive: 0.027,inactive: -0.015,inactive: 0.009,inactive: 0.114,inactive: 0.185,inactive: 0.036,active: -0.427,inactive: 0.072,inactive: -0.056,inactive: 0.023
RBPJ (UniProt Q06330),inactive: 0.009,inactive: -0.037,inactive: 0.019,inactive: 0.016,inactive: 0,inactive: -0.075,inactive: 0.052,inactive: -0.015,inactive: -0.014,inactive: -0.003,inactive: 0.035,inactive: 0.071,inactive: -0.029,inactive: 0.019,inactive: 0.013
RBBP5 (UniProt Q15291),inactive: -0.002,inactive: 0.033,inactive: 0.094,inactive: -0.014,inactive: -0.051,inactive: -0.021,inactive: 0.01,inactive: 0.022,inactive: 0.004,inactive: -0.046,inactive: 0.008,inactive: 0.108,inactive: 0.004,inactive: -0.013,inactive: -0.017
RCC2 (UniProt Q9P258),inactive: 0.015,inactive: -0.006,inactive: -0.006,inactive: -0.014,inactive: -0.017,inactive: 0.022,inactive: 0.013,inactive: -0.003,inactive: -0.01,inactive: 0.04,inactive: 0.015,inactive: -0.062,inactive: 0.026,inactive: -0.01,inactive: 0.001
RCCD1 (UniProt A6NED2),inactive: -0.015,inactive: -0.01,inactive: -0.001,inactive: -0.05,inactive: -0.055,inactive: 0.032,inactive: -0.015,inactive: 0.005,inactive: -0.001,inactive: -0.118,inactive: -0.06,inactive: -0.043,inactive: 0.038,inactive: 0.002,inactive: -0.055
RBBP7 isoform 2 (UniProt Q16576),inactive: 0.013,inactive: -0.019,inactive: -0.005,inactive: -0.035,inactive: 0.016,inactive: -0.051,inactive: 0.047,inactive: 0.01,inactive: -0.025,inactive: 0.035,inactive: -0.043,inactive: 0.03,inactive: -0.012,inactive: -0.068,inactive: 0.024
RC3H1 (UniProt Q5TC82),inactive: 0.039,inactive: -0.088,inactive: -0.059,inactive: -0.035,inactive: 0.067,inactive: 0.083,inactive: 0.067,inactive: 0.006,inactive: -0.036,inactive: -0.021,inactive: 0.078,inactive: 0.006,inactive: -0.038,inactive: 0.043,inactive: -0.111
RDX (UniProt P35241),inactive: -0.003,inactive: -0.006,inactive: 0.037,inactive: 0.048,inactive: -0.008,inactive: 0.047,inactive: 0.013,inactive: -0.007,inactive: 0.002,inactive: 0.006,inactive: 0.002,inactive: 0.129,inactive: -0.017,inactive: -0.008,inactive: 0.023

# Just log2 fold change [10], log2 fold change [6] and log2 fold change [12], for some of the entries so far:
Target,log2 fold change [10],log2 fold change [6],log2 fold change [12]
REEP5 (UniProt Q00765),inactive: -0.023,inactive: 0.005,inactive: 0.001
RBCK1 (UniProt Q9BYM8),inactive: 0.002,inactive: -0.109,inactive: -0.04
